Test results taken from PubChem BioAssay AID445 (National Center for Advancing Translational Sciences (NCATS), 2006).
The list shows a part of the results. Shown are side measurements of this screen, not its main read-out; they come without a call. Most of these compounds were active or inconclusive in the main read-out, so they are no random draw. Potencies come from curve fits of mixed quality, noted in brackets.

Assay: IkB Signaling
Conditions: ABC-DLBCL IkBa-CBG/CBR dual luciferase ratio (green luciferase fused to IkBa over red control in OCI-Ly3 lymphoma cells), 4 h
Method in brief: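 Curves were fitted separately to fusion (green), unfused (red) and ratio luminescence, then classed by r2, magnitude and activity. Cells: OCI-Ly3, 4 h compound plus doxycycline at 37C; 10 uM MG-132 defined full response.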

[1] = measured here: control luc red channel unless noted

**Q.** Which AC50 [1] does the source give for Cc1nn(CC(=O)N2CCN(c3cccc(Cl)c3)CC2)c(=O)c2c1sc1ccccc12 here?
**A.** The AC50 was 15.8 µM [falling, single point].

**Q.** Which AC50 [1] does the source give for CCOC(=O)c1ccc(NC(=O)CCc2c(C)nc3c(c(C)nn3C(C)(C)C)c2C)cc1 here?
**A.** Its AC50 is 25.1 µM [falling, single point].

**Q.** With CCOc1cc(C(=O)OCc2cc(=O)n3nc(C4CC4)sc3n2)cc(OCC)c1OCC as the compound, how does the AC50 [1] read?
**A.** Its AC50 is 39.8 µM [falling, single point].

**Q.** For CC(C)CCNC(=O)c1ccc(Cn2c(SCC(N)=O)nc3ccccc3c2=O)cc1, which AC50 [1] is on record?
**A.** The AC50 was 2.51 µM [falling, partial curve].

**Q.** With COc1cc(OC)c(NC(=O)NCc2cccn2Cc2ccccc2)cc1Cl as the compound, how does the AC50 [1] read?
**A.** The AC50 was 12.6 µM [falling, partial curve].

**Q.** Which AC50 [1] does the source give for COC(=O)c1c(-c2cccs2)csc1NC(=O)c1cc(OC)c(OC)c(OC)c1 here?
**A.** The AC50 was 0.794 µM [falling, full curve].

**Q.** With COc1ccc(-c2cn3c(n2)sc2cc(C(=O)Nc4ccc(F)cc4Cl)ccc23)cc1 as the compound, how does the AC50 [1] read?
**A.** The AC50 was 1.58 µM [falling, full curve].

**Q.** Which AC50 [1] does the source give for COc1ccc(-n2ccn(CC(=O)Nc3ccc(C)c(C)c3)c(=O)c2=O)cc1OC here?
**A.** The AC50 was 2 µM [rising, full curve].

**Q.** For CC1CCCN(S(=O)(=O)c2cc(C(=O)NCc3ccccc3Cl)n(C)c2)C1 (stereo not drawn), which AC50 [1] is on record?
**A.** Its AC50 is 25.1 µM [falling, single point].

**Q.** Which AC50 [1] does the source give for Cc1ccc(NC(=O)C(=O)NCC(c2cccnc2)N2CCc3ccccc3C2)cc1 (stereo not drawn) here?
**A.** Its AC50 is 2 µM [falling, partial curve].

**Q.** Which AC50 [1] does the source give for C=Cc1ccc(Cn2c(C(=O)O)c(CNCc3ccccc3)c3ccc(OC)cc32)cc1 here?
**A.** The AC50 was 15.8 µM [falling, single point].

**Q.** For CC1=CC(=O)c2ccccc2C1=O, which AC50 [1] is on record?
**A.** Its AC50 is 10 µM [falling, partial curve].

**Q.** For CCN(C(=O)c1cc2cc(Br)cc(OC)c2oc1=O)c1ccccc1, which AC50 [1] is on record?
**A.** The AC50 was 31.6 µM [falling, single point].

**Q.** With CCCCCOC(=O)c1[nH]c2c(c1C)C(=O)CC(c1ccco1)C2 (stereo not drawn) as the compound, how does the AC50 (measured here: IkB-luc green channel) read?
**A.** The AC50 was 0.126 µM [rising, full curve].

**Q.** And the AC50 (measured here: control luc red channel)?
**A.** The AC50 was 0.0794 µM [rising, full curve].

**Q.** Which AC50 [1] does the source give for O=C(NC1CCCCCC1)c1ccc(CS(=O)c2ccc(Br)cc2)o1 (stereo not drawn) here?
**A.** Its AC50 is 12.6 µM [falling, single point].

**Q.** Which AC50 [1] does the source give for COc1cccc(C2c3c(-c4ccccc4O)n[nH]c3C(=O)N2Cc2cccnc2)c1 (stereo not drawn) here?
**A.** Its AC50 is 12.6 µM [falling, partial curve].

**Q.** For CCOc1ccc(CNC(=O)C2=Cc3cc(Br)ccc3OC2)cc1OC, which AC50 [1] is on record?
**A.** Its AC50 is 25.1 µM [falling, partial curve].

**Q.** For N=C1[C@@H](O)[C@]2(I)c3ccccc3N3C(=N)[C@H](O)[C@@H]4c5ccccc5N1[C@@H]4[C@@H]32, which AC50 [1] is on record?
**A.** Its AC50 is 0.1 µM [falling, full curve].

**Q.** For COc1ccc(Cl)cc1NC(=O)CSc1nc(=O)[nH]c2c1CCCC2, which AC50 [1] is on record?
**A.** Its AC50 is 10 µM [falling, partial curve].

**Q.** For Cc1noc(C)c1COc1cccc(C(=O)OCCOc2ccc(F)cc2)c1, which AC50 [1] is on record?
**A.** The AC50 was 31.6 µM [falling, single point].

**Q.** For CC(=O)N1c2c(cc(Br)cc2S(=O)(=O)NCc2ccccc2Cl)CC1C (stereo not drawn), which AC50 [1] is on record?
**A.** The AC50 was 25.1 µM [falling, single point].

**Q.** With COc1ccc(NC(=O)c2cc(C)nc3c2c(C)nn3-c2cccc(Cl)c2C)c(OC)c1 as the compound, how does the AC50 [1] read?
**A.** The AC50 was 12.6 µM [falling, partial curve].

**Q.** With Cc1ccc2oc(-c3ccc(NC(=O)c4cccc(F)c4)c(C)c3)nc2c1 as the compound, how does the AC50 [1] read?
**A.** Its AC50 is 5.01 µM [falling, partial curve].

**Q.** For COc1cc(Cl)c(NC(=O)CN(C)S(=O)(=O)c2ccc3c(c2)CCCC(=O)N3)c(OC)c1, which AC50 [1] is on record?
**A.** Its AC50 is 20 µM [falling, partial curve].

**Q.** Which AC50 [1] does the source give for COc1ccccc1CN1CC[C@@]2(CCCN(C(=O)c3cc(C(F)(F)F)cc(C(F)(F)F)c3)C2)C1 here?
**A.** The AC50 was 2.51 µM [rising, partial curve] [measured here: IkB-luc green channel].

**Q.** For Cc1ccc(-c2nnc(Nc3cccc(O)c3)c3ccccc23)cc1S(=O)(=O)N1CCCCC1, which AC50 [1] is on record?
**A.** The AC50 was 6.31 µM [falling, partial curve].

**Q.** Which AC50 [1] does the source give for CCCc1ccc(-c2ccc(C(=O)Oc3ccc(Br)cc3)cc2)nc1 here?
**A.** Its AC50 is 2 µM [falling, partial curve].

**Q.** Which AC50 [1] does the source give for CN(C(=O)Cn1ncc2c1-c1ccccc1OC2)c1ccc(Br)cc1 here?
**A.** The AC50 was 25.1 µM [falling, partial curve].

**Q.** With CCS(=O)(=O)c1cccc(C(=O)N2CCN(c3nc4c(C)ccc(Cl)c4s3)CC2)c1 as the compound, how does the AC50 [1] read?
**A.** Its AC50 is 25.1 µM [falling, single point].

**Q.** With CCCCCn1c(CNC(=O)c2ccc(F)cc2)nc2ccccc21 as the compound, how does the AC50 [1] read?
**A.** Its AC50 is 12.6 µM [falling, partial curve].

**Q.** With O=C(Cn1nnc2c(cnn2-c2ccccc2)c1=O)N1CCN(c2ccccc2F)CC1 as the compound, how does the AC50 [1] read?
**A.** The AC50 was 31.6 µM [falling, single point].

**Q.** Which AC50 [1] does the source give for CN(C)C1(CNC(=O)COc2ccc(C(C)(C)C)cc2)CCCCC1 here?
**A.** The AC50 was 5.01 µM [falling, partial curve].

**Q.** With COc1ccccc1OCC(=O)Nc1c(C(=O)c2ccc(C)cc2)oc2ccccc12 as the compound, how does the AC50 [1] read?
**A.** The AC50 was 1.58 µM [rising, full curve].

**Q.** For CCCCCn1c(-c2cccc(C)c2)nc2ccccc21, which AC50 [1] is on record?
**A.** The AC50 was 31.6 µM [falling, single point].

**Q.** Which AC50 [1] does the source give for O=C(Nc1ccc2c(c1)OCO2)c1cc(-c2ccc(Cl)cc2)on1 here?
**A.** Its AC50 is 3.16 µM [falling, full curve].

**Q.** Which AC50 [1] does the source give for CSc1cccc(NC(=O)C2CCCN(S(=O)(=O)c3ccc(F)cc3)C2)c1 (stereo not drawn) here?
**A.** The AC50 was 12.6 µM [falling, partial curve].

**Q.** For COc1ccc(OC)c(CCNC(=O)C(C)n2c(C)c3cnn(-c4ccccc4)c(=O)c3c2C)c1 (stereo not drawn), which AC50 [1] is on record?
**A.** The AC50 was 20 µM [falling, single point].

**Q.** With COc1ccccc1CNS(=O)(=O)c1ccc(N2CCCCS2(=O)=O)cc1 as the compound, how does the AC50 [1] read?
**A.** The AC50 was 39.8 µM [falling, single point].

**Q.** Which AC50 [1] does the source give for O=C(CCc1nc2ccccc2s1)N1CCN(S(=O)(=O)c2cccs2)CC1 here?
**A.** Its AC50 is 31.6 µM [falling, single point].

**Q.** Which AC50 [1] does the source give for CCn1c(SCc2ccc(F)cc2Cl)nc(=O)c2c(C(=O)OC)cc(C3CC3)nc21 here?
**A.** The AC50 was 39.8 µM [falling, partial curve].

**Q.** With c1ccc(-c2cc3c(-n4cccc4)ncnc3o2)cc1 as the compound, how does the AC50 [1] read?
**A.** The AC50 was 25.1 µM [falling, partial curve].

**Q.** For Cc1cc(NC(=O)COc2ccc(N(C)S(=O)(=O)c3ccccc3)cc2)no1, which AC50 [1] is on record?
**A.** The AC50 was 39.8 µM [falling, single point].

**Q.** With CC(C)C1N=C2c3ccccc3N=C(SCC(=O)NCc3ccccc3Cl)N2C1=O (stereo not drawn) as the compound, how does the AC50 [1] read?
**A.** Its AC50 is 12.6 µM [falling, partial curve].

**Q.** For CCCn1c(=O)c2sccc2n2c(CCCC(=O)Nc3ccc(Oc4ccccc4)cc3)nnc12, which AC50 [1] is on record?
**A.** Its AC50 is 5.01 µM [falling, full curve].

**Q.** With CCN(CC)CCCNC(=O)CSc1nc2nc(C)c(Cc3c(F)cccc3Cl)c(C)n2n1 as the compound, how does the AC50 [1] read?
**A.** The AC50 was 39.8 µM [falling, single point].

**Q.** For NC(=O)c1ccsc1NC(=O)COC(=O)c1ccccc1NCc1ccco1, which AC50 [1] is on record?
**A.** Its AC50 is 12.6 µM [falling, partial curve].

**Q.** Which AC50 [1] does the source give for COc1ccc(N2CCn3c2nc2c3c(=O)n(CCCc3ccccc3)c(=O)n2C)c(OC)c1 here?
**A.** Its AC50 is 3.16 µM [falling, full curve].

**Q.** Which AC50 [1] does the source give for Nc1ncnc2c([C@@H]3O[C@@H](CO)[C@H](O)[C@@H]3O)nsc12 here?
**A.** The AC50 was 0.398 µM [falling, full curve].

**Q.** With O=c1[nH]c(C2CCCN(S(=O)(=O)c3ccccc3)C2)nc2c1nnn2Cc1ccccc1F (stereo not drawn) as the compound, how does the AC50 [1] read?
**A.** Its AC50 is 20 µM [falling, single point].

**Q.** Which AC50 [1] does the source give for COc1ccc(Cn2ccc3nc(C)c(C(=O)N4CCN(c5ccccc5OC)CC4)cc3c2=O)cc1 here?
**A.** Its AC50 is 25.1 µM [falling, partial curve].

**Q.** Which AC50 [1] does the source give for CC1=C(C(N)=O)C(c2cccc(C)c2)n2nc(-c3cccc(C)c3)nc2N1 (stereo not drawn) here?
**A.** The AC50 was 15.8 µM [falling, partial curve].

**Q.** Which AC50 [1] does the source give for CC(C)c1ccc(OCc2nc(-c3ccccn3)no2)c(Br)c1 here?
**A.** The AC50 was 12.6 µM [falling, partial curve].

**Q.** With CC(C)(C)OC(=O)N1CCC(c2c(C(=O)N3CCN(c4ccccn4)CC3)cnn2-c2ccccc2Cl)CC1 as the compound, how does the AC50 [1] read?
**A.** Its AC50 is 15.8 µM [falling, partial curve].

**Q.** With CCOCCCNC(=O)c1cn(CC)c2ccc(S(=O)(=O)N3CCc4ccccc4C3)cc2c1=O as the compound, how does the AC50 [1] read?
**A.** Its AC50 is 31.6 µM [falling, single point].

**Q.** For CCOC(=O)c1[nH]c(C)c(CCC(=O)N2CCN(c3cccc(C)c3C)CC2)c1C, which AC50 [1] is on record?
**A.** The AC50 was 15.8 µM [falling, partial curve].

**Q.** For Cc1ccc2nc(-c3ccncc3)c(Nc3ccc(C(C)C)cc3)n2c1, which AC50 [1] is on record?
**A.** The AC50 was 31.6 µM [falling, single point].

**Q.** With Cc1ccc(CSc2nc(-c3ccc(C(C)(C)C)cc3)nc3cc(=O)[nH]n23)cc1 as the compound, how does the AC50 [1] read?
**A.** Its AC50 is 31.6 µM [falling, single point].

**Q.** For N#CC1=C(N)N2C(=C(C#N)C13CCCCC3)SC1CCCCC12O (stereo not drawn), which AC50 [1] is on record?
**A.** Its AC50 is 20 µM [falling, partial curve, poor fit].

**Q.** For COc1ccc(OC)c(CNC(=O)c2c(C)oc3ncn(C)c(=O)c23)c1, which AC50 [1] is on record?
**A.** Its AC50 is 20 µM [falling, single point].

**Q.** Which AC50 [1] does the source give for O=C(c1ccc2c(c1)CCN2S(=O)(=O)c1ccc(Cl)cc1)N1CCN(c2ccccc2)CC1 here?
**A.** The AC50 was 12.6 µM [falling, single point].

**Q.** With CCOC(=O)c1c(C)oc2c1c(C(c1ccncc1)N1CCOCC1)c(O)c1ccccc12 (stereo not drawn) as the compound, how does the AC50 [1] read?
**A.** Its AC50 is 31.6 µM [falling, single point].

**Q.** Which AC50 [1] does the source give for CC(=O)Nc1ccc(S(=O)(=O)NCc2cccn2Cc2cccc(C)c2)cc1 here?
**A.** Its AC50 is 10 µM [falling, partial curve].
